Test results taken from patent US20190308987A1, “DUAL MODULATORS OF BOTH MU AND KAPPA OPIOID RECEPTORS” (priority 2016, published 2019).

What was measured:
[1] = test system: mouse proximal colon circular muscle; assay: Colon circular muscle isometric tension recordings, proximal colon; conditions: naive tissue, read-out: pD2 for morphine induced contractions (converted)
Method: (§1) Mice were euthanized by cervical dislocation. The colon was dissected, flushed of its contents, and trimmed of mesentery. […] The tissues, 0.5 cm in length, were suspended vertically along the axis of the circular muscle with a metal triangle tied to a hook under 1 g of passive tension in 15 mL siliconized organ baths.
(§2) Data are presented as the mean±S.E.M, values of P≤0.05 were considered significant.

[2] = test system: mouse distal colon circular muscle; assay: Colon circular muscle isometric tension recordings, distal colon; conditions: naive tissue, read-out: pD2 for morphine induced contractions (converted)
Method: as §1, §2

Question: What does the source list for `CN1CC[C@]23c4c5ccc(O)c4O[C@H]2[C@@H](O)C=C[C@H]3[C@H]1C5` [morphine, reference compound]?
Answer: EC50 [1]: 158 nM; EC50 [2]: 1000 nM
